These are yes or no findings as the source states them, for the method shown. Binding seen in cells or lysates may run through a third protein. Here binding means that the protein was enriched with, or labelled near, the bait; the list need not be complete. Each block holds one molecule with its values, some of them ahead of it.
Key:
[1] = target: GS::RPM-1 ligase-dead (LD) (C. elegans) (UniProt Q17551); experiment: affinity purification with mass spectrometry; GS-tagged RPM-1 bait captured on IgG-coupled Dynabeads from whole-animal lysates of mixed-stage C. elegans (80 mg total protein, 500 uL beads, 4°C, 4 hours; various detergent conditions); SDS-PAGE, in-gel trypsin digest, LC-MS/MS; GS::GFP negative control; 7 independent experiments; hit = 1.5x or greater total spectra over GS::GFP
GS::RPM-1 (C. elegans) = GS::RPM-1 (C. elegans) (UniProt Q17551); experiment: as above

The chains behind the UniProt entries cited, without tags or fusion partners.
UniProt Q17551: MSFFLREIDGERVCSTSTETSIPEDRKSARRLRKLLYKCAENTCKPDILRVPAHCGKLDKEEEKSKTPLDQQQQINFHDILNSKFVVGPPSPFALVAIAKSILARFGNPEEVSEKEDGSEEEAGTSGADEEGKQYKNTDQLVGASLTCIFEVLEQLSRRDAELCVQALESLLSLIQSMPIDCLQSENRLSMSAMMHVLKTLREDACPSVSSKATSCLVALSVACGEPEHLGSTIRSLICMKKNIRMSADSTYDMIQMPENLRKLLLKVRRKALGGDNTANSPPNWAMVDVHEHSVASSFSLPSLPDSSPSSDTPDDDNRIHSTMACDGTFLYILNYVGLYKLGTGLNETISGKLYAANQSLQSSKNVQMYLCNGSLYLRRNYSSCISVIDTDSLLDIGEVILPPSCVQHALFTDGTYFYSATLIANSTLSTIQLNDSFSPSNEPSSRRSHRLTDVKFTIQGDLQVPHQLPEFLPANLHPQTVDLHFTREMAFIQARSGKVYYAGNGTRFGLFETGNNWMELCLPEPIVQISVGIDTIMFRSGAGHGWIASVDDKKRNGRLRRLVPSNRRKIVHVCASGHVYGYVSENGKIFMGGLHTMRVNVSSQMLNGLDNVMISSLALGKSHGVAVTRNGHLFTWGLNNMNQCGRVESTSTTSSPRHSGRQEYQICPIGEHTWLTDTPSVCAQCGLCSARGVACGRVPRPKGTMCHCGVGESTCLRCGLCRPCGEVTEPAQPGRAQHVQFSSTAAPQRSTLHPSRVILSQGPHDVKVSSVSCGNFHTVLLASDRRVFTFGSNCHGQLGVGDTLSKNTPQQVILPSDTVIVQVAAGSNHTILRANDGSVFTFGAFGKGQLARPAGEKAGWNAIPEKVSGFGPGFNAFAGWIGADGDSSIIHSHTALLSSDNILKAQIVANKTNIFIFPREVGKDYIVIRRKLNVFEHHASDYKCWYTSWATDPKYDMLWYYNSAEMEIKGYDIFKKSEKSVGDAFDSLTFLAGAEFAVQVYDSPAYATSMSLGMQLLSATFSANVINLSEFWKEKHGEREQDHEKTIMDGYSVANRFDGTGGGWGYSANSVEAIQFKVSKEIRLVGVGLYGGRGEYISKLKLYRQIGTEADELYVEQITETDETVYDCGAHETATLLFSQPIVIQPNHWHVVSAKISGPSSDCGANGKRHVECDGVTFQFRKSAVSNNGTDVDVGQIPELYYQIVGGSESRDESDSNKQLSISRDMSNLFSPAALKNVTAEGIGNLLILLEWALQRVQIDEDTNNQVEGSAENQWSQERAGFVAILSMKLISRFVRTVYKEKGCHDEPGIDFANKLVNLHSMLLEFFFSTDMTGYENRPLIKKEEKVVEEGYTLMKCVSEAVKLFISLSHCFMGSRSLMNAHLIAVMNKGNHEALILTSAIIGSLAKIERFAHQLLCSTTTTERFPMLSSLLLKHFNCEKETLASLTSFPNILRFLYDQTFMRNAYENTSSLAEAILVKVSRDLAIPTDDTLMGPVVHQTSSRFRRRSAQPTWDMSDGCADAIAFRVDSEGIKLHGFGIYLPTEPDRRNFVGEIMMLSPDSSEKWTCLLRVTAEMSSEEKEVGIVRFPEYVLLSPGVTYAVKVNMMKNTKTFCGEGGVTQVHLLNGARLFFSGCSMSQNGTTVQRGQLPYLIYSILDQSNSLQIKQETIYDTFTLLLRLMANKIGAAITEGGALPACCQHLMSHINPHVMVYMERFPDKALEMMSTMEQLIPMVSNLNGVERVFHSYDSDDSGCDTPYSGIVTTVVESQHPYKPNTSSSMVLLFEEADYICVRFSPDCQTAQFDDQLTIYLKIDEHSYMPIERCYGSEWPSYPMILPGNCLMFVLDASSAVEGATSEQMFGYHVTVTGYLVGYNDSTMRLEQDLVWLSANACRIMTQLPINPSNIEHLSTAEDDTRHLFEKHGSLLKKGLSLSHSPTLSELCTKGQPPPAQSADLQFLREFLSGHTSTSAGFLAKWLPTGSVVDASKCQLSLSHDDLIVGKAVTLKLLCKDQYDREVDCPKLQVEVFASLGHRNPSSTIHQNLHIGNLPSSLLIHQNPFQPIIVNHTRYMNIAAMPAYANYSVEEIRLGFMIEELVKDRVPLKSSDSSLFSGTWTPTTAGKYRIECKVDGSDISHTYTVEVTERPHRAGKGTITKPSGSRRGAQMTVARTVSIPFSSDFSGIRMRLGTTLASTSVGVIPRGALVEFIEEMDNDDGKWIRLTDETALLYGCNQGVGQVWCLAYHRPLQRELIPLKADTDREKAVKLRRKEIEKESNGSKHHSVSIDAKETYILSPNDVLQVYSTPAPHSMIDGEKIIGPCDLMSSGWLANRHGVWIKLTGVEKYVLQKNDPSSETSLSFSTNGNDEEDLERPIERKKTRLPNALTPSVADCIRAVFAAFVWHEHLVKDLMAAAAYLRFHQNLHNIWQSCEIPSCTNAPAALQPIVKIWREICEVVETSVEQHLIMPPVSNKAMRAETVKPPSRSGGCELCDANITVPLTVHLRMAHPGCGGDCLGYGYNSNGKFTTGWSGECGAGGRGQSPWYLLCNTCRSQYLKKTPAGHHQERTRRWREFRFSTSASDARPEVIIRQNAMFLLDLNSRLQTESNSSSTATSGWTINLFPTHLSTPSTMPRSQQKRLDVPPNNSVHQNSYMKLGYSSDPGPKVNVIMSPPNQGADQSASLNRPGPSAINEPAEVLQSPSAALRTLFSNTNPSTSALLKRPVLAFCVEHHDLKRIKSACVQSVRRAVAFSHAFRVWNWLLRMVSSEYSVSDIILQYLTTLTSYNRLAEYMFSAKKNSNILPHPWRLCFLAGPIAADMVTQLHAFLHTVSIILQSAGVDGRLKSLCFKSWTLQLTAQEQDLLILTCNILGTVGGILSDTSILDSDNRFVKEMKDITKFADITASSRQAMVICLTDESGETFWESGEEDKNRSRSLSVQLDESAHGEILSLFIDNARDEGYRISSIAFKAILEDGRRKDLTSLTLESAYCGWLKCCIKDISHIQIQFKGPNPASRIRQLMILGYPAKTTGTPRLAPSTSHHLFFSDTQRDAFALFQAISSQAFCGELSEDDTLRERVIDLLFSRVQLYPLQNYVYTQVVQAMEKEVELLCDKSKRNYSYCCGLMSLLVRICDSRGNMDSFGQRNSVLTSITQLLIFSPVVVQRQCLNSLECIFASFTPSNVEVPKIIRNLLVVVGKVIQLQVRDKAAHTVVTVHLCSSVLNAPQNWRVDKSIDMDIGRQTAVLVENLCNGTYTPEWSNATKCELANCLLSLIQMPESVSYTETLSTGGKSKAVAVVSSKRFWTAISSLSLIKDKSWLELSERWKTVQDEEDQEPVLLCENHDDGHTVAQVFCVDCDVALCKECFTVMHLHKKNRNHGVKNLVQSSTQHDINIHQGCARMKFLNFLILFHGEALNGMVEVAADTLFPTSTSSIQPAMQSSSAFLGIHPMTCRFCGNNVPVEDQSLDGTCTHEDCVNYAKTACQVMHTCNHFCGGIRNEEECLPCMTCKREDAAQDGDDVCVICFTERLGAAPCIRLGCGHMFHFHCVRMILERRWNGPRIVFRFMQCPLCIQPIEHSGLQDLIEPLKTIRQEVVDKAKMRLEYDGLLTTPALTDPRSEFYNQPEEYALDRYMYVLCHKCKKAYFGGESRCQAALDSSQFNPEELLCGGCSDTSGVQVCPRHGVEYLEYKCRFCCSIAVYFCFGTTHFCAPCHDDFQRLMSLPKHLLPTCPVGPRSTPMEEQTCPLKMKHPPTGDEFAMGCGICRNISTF
UniProt G5ECH7: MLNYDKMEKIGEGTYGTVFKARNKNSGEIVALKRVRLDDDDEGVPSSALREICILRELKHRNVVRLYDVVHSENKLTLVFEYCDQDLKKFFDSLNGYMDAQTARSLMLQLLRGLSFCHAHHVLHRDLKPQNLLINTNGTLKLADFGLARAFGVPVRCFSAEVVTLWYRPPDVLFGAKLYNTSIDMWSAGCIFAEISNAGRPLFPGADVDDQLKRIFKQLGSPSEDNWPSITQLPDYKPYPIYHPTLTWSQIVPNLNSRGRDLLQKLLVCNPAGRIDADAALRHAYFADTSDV

binding [1]: binds
Molecule: CDK-5 (from UniProt G5ECH7 1-292)

binding (GS::RPM-1 (C. elegans)): binds
B1: TNS-1 (protein, UniProt H2L045 1-1354)
chain: MAAAALCCASRKSNKYNNEAGYEVYTISEDQLRLKQKMKDRKEGVQVEYITSRLIVLSCTSETSERKFVESLLKASQQIQNAHNKHIRVWNVSQRRHDISSSLDAIPFGWPSETAPSLEKLCTICKNLDQWMLEHPLNIAVIFCKGGLERCAIVVNAFMRFNAISATDDSVDDRFSMQRFSERFLGPDGPPSYKRYLGYFSSLLSGRISVNSDPLYLHNIILTFFEPINVFLKIYERLVPVYQSKTVALNKSSKFEMDGSLKLRGDIFFKCIVAASSPGSSTRCLFTCQLNTCALELHPINSEGYSVVRLHKEELDLIFNDKKIDNRVTVELVVSHTSGPTTIATAAVQSVHSLLPRNNSYETFELAQDDETNRSRLEVEYSEIRKKSTKSSKSANPINNNQEEEMPVGPPVPPKPSTPIMNGERLGEYGVGGHIGNGDVVPERRGILPASLREKINQKKELEGRATPSIEPDLVGRDRYDKASRCFSYVPAKSMQEAFERPRRTSFSRAIEKRENSVENVSQEEVARTEIPQSYQQNDISTPAKWDEQVEDAKQSALLEELARAPSAMQHNYWGNGEVDNVQVVDQAQRAVITPTSTLQRRPKPPARSGSYRTLNDDAYCSDMDELCDPEYYLNYNSNTAPLPPPRRQEQHAGTRSVQLPRKKMNFDAVTDPLDDVLESTKRLGSAYSVGDVRGGQQQQQEQHNASNDFNFSNTLNNTPTDYRQHYRNRNCQSVTTPRNHHFSTPSREQEADAADTWLSGKLKKVRSKRDIDPDIVRRRTQEKMLLEELKDSAANNDENQHNLPNGHARGAGLQNIDPLAEFRREEERLRNTRSPYGEERWRGRMRGKPPTPPPRESSASPVNSLPRGTPAHHMDRQRHNQSVPLPMHHRQFDEDFDVNSLFNFSHDPRQQSTTLERGGRSLSRGARIQDAYYASQQDLSANNRFNSGQERVAAAIYRAETAHRDMYASGTINRAETPGRYFPENSAVLERSSTPSFPVSRATPLPFHPLLYNNGERGGSGHAAGGGGGGHNGYSTMNNRSASPRLFGGSSTLSRRSSVNSVDTSEIIHHHPLFVKDTSKYWYKPTISREQAINMLRDKPPGTFVVRDSNSFPGAFGLALKVSTPPPGVNPGDGSELVRHFLIEPSPKGVKLKGCNNEPVFGSLSALVYQHSITALALPTKLVLPDFDPAATPEHLSATQALLEQGAACNVVYVGSVDVESLTGNECVKRSIATCSQRAINGDSRAVSVHFKVSSQGVTLTDNTRKVFFRRHFNVQSVIFAGMDPIERRFENTRALGFHDGCIAQARLFAFVARIPSSSENACHVFAELEPEQPGSAVVNFINKVMLAQKNRS

binding [1]: binds
B2: PAT-3 (protein, UniProt Q27874 20-809)
chain: ASDWKTGEVTGKVVEKSEFPCYSLSRDNYTCSACIQYHESCAWCGAPMFDEKKPYARCDSRAKLMEHGCPNSYIEDPATKLDITEDSKLSDQGQVESEEEAVQIKPQEMYVEIRPKSRVRFNVTYRQAVDYPVDLYYLMDLSYSMKDDKQKLSELGDLLAERMRTVTKNFRLGFGSFIDKKLMPFIDPRIEKQLSPCPTPCAEPYGFKHQMSLTTNTAKFKAEVDKAEISGNLDAPEGGFDAVVQALACNKTIGWRERARKMIVFSTDAGFHFAGDGRLAGVVEPNDGTCHLDREGYYTETLNQDYPSIALLHQMIKDRKANVIFAVTKNNQDLYTQLSNALPDVSSSVGVLANDSRNIVDLIEKEYLKISEKIIMVDNANASEGLKLTYRSMCLDGTTLKDTNVCEGIRVGDEVQFEVTLENTHCIDKRDFVLRIGPSGLDETLIVNVKVLCDCDCERQDRIVTNSADCNGGDMVCGVCRCKGGNVGKYCECNRPGMSTAALNEKCKRTNESAICEGRGVCNCGRCECNPRANPEEQISGEFCECDNFNCPRHDRKICAEHGECNCGKCICAPGWTGRACECPISTDSCLSANGKICNGKGECICGRCRCFDSPDGNRYSGAKCEICPTCPTKCVEYKNCVMCQQWQTGPLNETACDQCEFKVIPVEELPNLNETTPCQFVDPADDCTFYYLYYYDEATDNATVWVRKHKDCPPPVPVLAIVLGVIAGIVILGILLLLLWKLLTVLHDRSEYATFNNERLMAKWDTNENPIYKQATTTFKNPVYAGKAN

binding (GS::RPM-1 (C. elegans)): binds
B3: CLP-1 (protein, UniProt P34308 1-780)
chain: MADDEEEIIQKVEVKPDEFNGLIGSIAGNLIRDKVGGAGGDILGGLASNFFGGGGGGGGGGGGGGFGGGNGGFGGGSNYDQGGNGNSGDQQKRKRDMAKDLIGGIFDNVVNRKGKKEQDNYGGGGNYGGGGGNQGGGGGGGFNFNDIGGLINSMGGGGGGGQRQGGGGGGFGDILGGIGSLIGGGGGGQYNGGGGNVNPNNLNGGMVNVIGNLIGEAAHRFLGVDPGTGRIIGAVAGNVIMGLGGKDNSLGNIGKVILDNIISGKFRRDVDPFVRPGPDPDRGGGGSGPSPISPRPTTEPQDFYELRDQCLESKRLFEDPQFLANDSSLFFSKRPPKRVEWLRPGEITREPQLITEGHSRFDVIQGELGDCWLLAAAANLTLKDELFYRVVPPDQSFTENYAGIFHFQFWQYGKWVDVVIDDRLPTSNGELLYMHSASNNEFWSALLEKAYAKLFGSYEALKGGTTSEALEDMTGGLTEFIDLKNPPRNLMQMMMRGFEMGSLFGCSIEADPNVWEAKMSNGLVKGHAYSITGCRIVDGPNGQTCILRIRNPWGNEQEWNGPWSDNSREWRSVPDSVKQDMGLKFDHDGEFWMSFDDFMRNFEKMEICNLGPDVMDEVYQMTGVKAAGMVWAANTHDGAWVRNQTAGGCRNYINTFANNPQFRVQLTDSDPDDDDELCTVIFAVLQKYRRNLKQDGLDNVPIGFAVYDAGNNRGRLSKQFFAANKSAMRSAAFINLREMTGRFRVPPGNYVVVPSTFEPNEEAEFMLRVYTNGFIESEEL

binding [1]: binds
B4: COR-1 (protein, UniProt Q21624 1-607)
chain: MAQIVRQSKFRHVFCKPVKHESCMSDIRVTEITWDSLFCDVNPKFIAFINRGAGGPFMVIPVNKIGRVDKDYPFVDAHKAPCLEVAWSPFNDNVIASCSEDTTCKVWVIPDRGLNRNLSEPAVELTGHQKRVNTIAWHPVANNVLLTAGGENVMFMWNVGTGEALLEISGHPDQIWSINFNFDGSQFVTTCKDKKIRILDSHTGEVVHEGMGHEGVKPQRAIFVKDGLILSTGFTKRSERLYALRAPEDLSTPIVEEELDTSNGVVFPFYDEDSGLVYLVGKGDCAIRYYEVNNDAPYVHYINTYTTNEPQRAVGFQSKRGMSSEENEINRIYKLTTKGVVDILQFFVPRKSDLFQHDLYPDTRSTIPALTAEEFMEGKNAAPNRQPVNAAAAAAAAKPKVQVAKKANILSTLAPTAAESVPTQSYSERPPSSQQPSPRPSASPRPRPVVDDDMGIVTMREAPPSRPASSRASRTEIPPKEESKVDPMKPKQAVQLKSRAARDEPGGGAQTAGQRRAAAELERIKRDQSRTADEDNTLAPPPSSSRASASPRGSVSAASDVGHVPQNMDELLEDLMKMKAVLRQHERRIRMLEEEIADRNMSNAYSF

binding (GS::RPM-1 (C. elegans)): binds
B5: DYN-1 (protein, UniProt P39055 1-830)
chain: MSWQNQGMQALIPVINRVQDAFSQLGTSVSFELPQIAVVGGQSAGKSSVLENFVGKDFLPRGSGIVTRRPLILQLIQDRNEYAEFLHKKGHRFVDFDAVRKEIEDETDRVTGQNKGISPHPINLRVFSPNVLNLTLIDLPGLTKVPVGDQPADIEQQIRDMILTFINRETCLILAVTPANSDLATSDALKLAKEVDPQGLRTIGVLTKLDLMDEGTDAREILENKLFTLRRGYVGVVNRGQKDIVGRKDIRAALDAERKFFISHPSYRHMADRLGTSYLQHTLNQQLTNHIRDTLPTLRDSLQKKMFAMEKDVAEYKNYQPNDPGRKTKALLQMVTQFNADIERSIEGSSAKLVSTNELSGGARINRLFHERFPFEIVKMEIDEKEMRKEIQYAIRNIHGIRVGLFTPDMAFEAIAKKQITRLKEPSLKCVDLVVNELANVIRQCADTMARYPRLRDELERIVVSHMREREQIAKQQIGLIVDYELAYMNTNHEDFIGFSNAEAKASQGQSAKKNLGNQVIRKGWLSLSNVSFVRGSKDNWFVLMSDSLSWYKDDEEKEKKYMLPLDGVKLKDIEGGFMSRNHKFALFYPDGKNIYKDYKQLELGCTNLDEIDAWKASFLRAGVYPEKQKAQEDESQQEMEDTSIDPQLERQVETIRNLVDSYMRIITKTIKDLVPKAVMHLIVNQTGEFMKDELLAHLYQCGDTDALMEESQIEAQKREEMLRMYHACKEALRIISEVNMSTLGDQPPPLPMSDYRPHPSGPSPVPRPAPAPPGGRQAPMPPRGGPGAPPPPGMRPPPGAPGGGGGMYPPLIPTRPGPGGPPPNMAPPR

binding [1]: binds
B6: ABL-1 (protein, UniProt P03949 1-1224)
chain: MGHSHSTGKEINDNELFTCEDPVFDQPVASPKSEISSKLAEEIERSKSPLILEVSPRTPDSVQMFRPTFDTFRPPNSDSSTFRGSQSREDLVACSSMNSVNNVHDMNTVSSSSSSSAPLFVALYDFHGVGEEQLSLRKGDQVRILGYNKNNEWCEARLYSTRKNDASNQRRLGEIGWVPSNFIAPYNSLDKYTWYHGKISRSDSEAILGSGITGSFLVRESETSIGQYTISVRHDGRVFHYRINVDNTEKMFITQEVKFRTLGELVHHHSVHADGLICLLMYPASKKDKGRGLFSLSPNAPDEWELDRSEIIMHNKLGGGQYGDVYEGYWKRHDCTIAVKALKEDAMPLHEFLAEAAIMKDLHHKNLVRLLGVCTHEAPFYIITEFMCNGNLLEYLRRTDKSLLPPIILVQMASQIASGMSYLEARHFIHRDLAARNCLVSEHNIVKIADFGLARFMKEDTYTAHAGAKFPIKWTAPEGLAFNTFSSKSDVWAFGVLLWEIATYGMAPYPGVELSNVYGLLENGFRMDGPQGCPPSVYRLMLQCWNWSPSDRPRFRDIHFNLENLISSNSLNDEVQKQLKKNNDKKLESDKRRSNVRERSDSKSRHSSHHDRDRDRESLHSRNSNPEIPNRSFIRTDDSVSFFNPSTTSKVTSFRAQGPPFPPPPQQNTKPKLLKSVLNSNARHASEEFERNEQDDVVPLAEKNVRKAVTRLGGTMPKGQRIDAYLDSMRRVDSWKESTDADNEGAGSSSLSRTVSNDSLDTLPLPDSMNSSTYVKMHPASGENVFLRQIRSKLKKRSETPELDHIDSDTADETTKSEKSPFGSLNKSSIKYPIKNAPEFSENHSRVSPVPVPPSRNASVSVRPDSKAEDSSDETTKDVGMWGPKHAVTRKIEIVKNDSYPNVEGELKAKIRNLRHVPKEESNTSSQEDLPLDATDNTNDSIIVIPRDEKAKVRQLVTQKVSPLQHHRPFSLQCPNNSTSSAISHSEHADSSETSSLSGVYEERMKPELPRKRSNGDTKVVPVTWIINGEKEPNGMARTKSLRDITSKFEQLGTASTIESKIEEAVPYREHALEKKGTSKRFSMLEGSNELKHVVPPRKNRNQDESGSIDEEPVSKDMIVSLLKVIQKEFVNLFNLASSEITDEKLQQFVIMADNVQKLHSTCSVYAEQISPHSKFRFKELLSQLEIYNRQIKFSHNPRAKPVDDKLKMAFQDCFDQIMRLVDR
